The mice bore no tumour; each value counts animals alive of those treated. Counts of survivors are from the toxicity check (mostly the fifth day) where no day follows; animals may have died later. Schedules are NCI's codes, taken here to give the interval after Q, in days (D) or hours (H), and the number of doses after X. Some entries hold several experiments; the results are listed from low to high.
Tested on: CD2F1 mice, nontumored, toxicity/survival
Test: NCI In Vivo Anticancer Drug Screen. Data for tumor model Nontumored Animals (Toxicity Test) in CD2F1 (CDF1) mice

SMILES: CC(=O)NC(CCC(=O)C=[N+]=N)C(=O)O (stereo unspecified)
- survivor count (dose: 0.01 mg/kg/injection, schedule: Q03HX016 (ip), vehicle: saline): 8 of 8
- survivor count (dose: 0.01 mg/kg/injection, schedule: Q03HX024 (ip), vehicle: saline): 8 of 8
- survivor count (dose: 0.03 mg/kg/injection, schedule: Q03HX008 (ip), vehicle: saline): 8 of 8
- survivor count (dose: 0.03 mg/kg/injection, schedule: Q03HX016 (ip), vehicle: saline): 8 of 8
- survivor count (dose: 0.03 mg/kg/injection, schedule: Q03HX024 (ip), vehicle: saline): 8 of 8
- survivor count (dose: 0.06 mg/kg/injection, schedule: Q03HX008 (ip), vehicle: saline): 8 of 8
- survivor count (dose: 0.06 mg/kg/injection, schedule: Q03HX016 (ip), vehicle: saline): 8 of 8
- survivor count (dose: 0.06 mg/kg/injection, schedule: Q03HX024 (ip), vehicle: saline): 8 of 8
- survivor count (dose: 0.13 mg/kg/injection, schedule: Q01DX005 (iv), vehicle: saline): 8 of 8
- survivor count (dose: 0.13 mg/kg/injection, schedule: Q01DX009 (ip), vehicle: saline): 8 of 8
- survivor count (dose: 0.13 mg/kg/injection, schedule: Q01DX009 (oral), vehicle: saline): 8 of 8
- survivor count (dose: 0.13 mg/kg/injection, schedule: Q03HX008 (ip), vehicle: saline): 8 of 8
- survivor count (dose: 0.13 mg/kg/injection, schedule: Q03HX016 (ip), vehicle: saline): 8 of 8
- survivor count (dose: 0.13 mg/kg/injection, schedule: Q03HX024 (ip), vehicle: saline): 8 of 8
- survivor count (dose: 0.13 mg/kg/injection, schedule: Q04DX003 (ip), vehicle: saline): 8 of 8
- survivor count (dose: 0.13 mg/kg/injection, schedule: Q08DX002 (ip), vehicle: saline): 8 of 8
- survivor count (dose: 0.25 mg/kg/injection, schedule: Q01DX001 (ip), vehicle: saline): 8 of 8
- survivor count (dose: 0.25 mg/kg/injection, schedule: Q01DX001 (iv), vehicle: saline): 8 of 8
- survivor count (dose: 0.25 mg/kg/injection, schedule: Q01DX005 (iv), vehicle: saline): 8 of 8
- survivor count (dose: 0.25 mg/kg/injection, schedule: Q01DX009 (ip), vehicle: saline): 8 of 8
- survivor count (dose: 0.25 mg/kg/injection, schedule: Q01DX009 (oral), vehicle: saline): 8 of 8
- survivor count (dose: 0.25 mg/kg/injection, schedule: Q03HX008 (ip), vehicle: saline): 8 of 8
- survivor count (dose: 0.25 mg/kg/injection, schedule: Q03HX016 (ip), vehicle: saline): 8 of 8
- survivor count (dose: 0.25 mg/kg/injection, schedule: Q03HX024 (ip), vehicle: saline): 8 of 8
- survivor count (dose: 0.25 mg/kg/injection, schedule: Q04DX003 (ip), vehicle: saline): 8 of 8
- survivor count (dose: 0.25 mg/kg/injection, schedule: Q08DX002 (ip), vehicle: saline): 8 of 8
- survivor count (dose: 0.5 mg/kg/injection, schedule: Q01DX001 (ip), vehicle: saline): 8 of 8
- survivor count (dose: 0.5 mg/kg/injection, schedule: Q01DX001 (iv), vehicle: saline): 8 of 8
- survivor count (dose: 0.5 mg/kg/injection, schedule: Q01DX005 (iv), vehicle: saline): 8 of 8
- survivor count (dose: 0.5 mg/kg/injection, schedule: Q01DX009 (ip), vehicle: saline): 8 of 8
- survivor count (dose: 0.5 mg/kg/injection, schedule: Q01DX009 (oral), vehicle: saline): 8 of 8
- survivor count (dose: 0.5 mg/kg/injection, schedule: Q03HX008 (ip), vehicle: saline): 8 of 8
- survivor count (dose: 0.5 mg/kg/injection, schedule: Q03HX016 (ip), vehicle: saline): 8 of 8
- survivor count (dose: 0.5 mg/kg/injection, schedule: Q03HX024 (ip), vehicle: saline): 8 of 8
- survivor count (dose: 0.5 mg/kg/injection, schedule: Q04DX003 (ip), vehicle: saline): 8 of 8
- survivor count (dose: 0.5 mg/kg/injection, schedule: Q06HX008 (ip), vehicle: saline): 8 of 8
- survivor count (dose: 0.5 mg/kg/injection, schedule: Q06HX012 (ip), vehicle: saline): 8 of 8
- survivor count (dose: 0.5 mg/kg/injection, schedule: Q08DX002 (ip), vehicle: saline): 8 of 8
- survivor count (dose: 1.0 mg/kg/injection, schedule: Q01DX001 (ip), vehicle: saline): 8 of 8
- survivor count (dose: 1.0 mg/kg/injection, schedule: Q01DX001 (iv), vehicle: saline): 8 of 8
- survivor count (dose: 1.0 mg/kg/injection, schedule: Q01DX001 (oral), vehicle: saline): 8 of 8
- survivor count (dose: 1.0 mg/kg/injection, schedule: Q01DX005 (ip), vehicle: saline): 8 of 8
- survivor count (dose: 1.0 mg/kg/injection, schedule: Q01DX005 (iv), vehicle: saline): 8 of 8
- survivor count (dose: 1.0 mg/kg/injection, schedule: Q01DX009 (ip), vehicle: saline): 8 of 8
- survivor count (dose: 1.0 mg/kg/injection, schedule: Q01DX009 (oral), vehicle: saline): 8 of 8
- survivor count (dose: 1.0 mg/kg/injection, schedule: Q03HX008 (ip), vehicle: saline): 8 of 8
- survivor count (dose: 1.0 mg/kg/injection, schedule: Q03HX016 (ip), vehicle: saline): 8 of 8
- survivor count (dose: 1.0 mg/kg/injection, schedule: Q03HX024 (ip), vehicle: saline): 8 of 8
- survivor count (dose: 1.0 mg/kg/injection, schedule: Q04DX003 (ip), vehicle: saline): 8 of 8
- survivor count (dose: 1.0 mg/kg/injection, schedule: Q06HX008 (ip), vehicle: saline): 8 of 8
- survivor count (dose: 1.0 mg/kg/injection, schedule: Q06HX012 (ip), vehicle: saline): 8 of 8
- survivor count (dose: 1.0 mg/kg/injection, schedule: Q08DX002 (ip), vehicle: saline): 8 of 8
- survivor count (dose: 2.0 mg/kg/injection, schedule: Q01DX001 (ip), vehicle: saline): 8 of 8
- survivor count (dose: 2.0 mg/kg/injection, schedule: Q01DX001 (iv), vehicle: saline): 8 of 8
- survivor count (dose: 2.0 mg/kg/injection, schedule: Q01DX001 (oral), vehicle: saline): 8 of 8
- survivor count (dose: 2.0 mg/kg/injection, schedule: Q01DX005 (ip), vehicle: saline): 6 of 8
- survivor count (dose: 2.0 mg/kg/injection, schedule: Q01DX005 (iv), vehicle: saline): 7 of 8 and 8 of 8
- survivor count (dose: 2.0 mg/kg/injection, schedule: Q01DX009 (ip), vehicle: saline): 8 of 8
- survivor count (dose: 2.0 mg/kg/injection, schedule: Q03HX008 (ip), vehicle: saline): 8 of 8
- survivor count (dose: 2.0 mg/kg/injection, schedule: Q03HX016 (ip), vehicle: saline): 8 of 8
- survivor count (dose: 2.0 mg/kg/injection, schedule: Q03HX024 (ip), vehicle: saline): 8 of 8
- survivor count (dose: 2.0 mg/kg/injection, schedule: Q04DX003 (ip), vehicle: saline): 8 of 8
- survivor count (dose: 2.0 mg/kg/injection, schedule: Q06HX008 (ip), vehicle: saline): 8 of 8
- survivor count (dose: 2.0 mg/kg/injection, schedule: Q06HX012 (ip), vehicle: saline): 8 of 8
- survivor count (dose: 2.0 mg/kg/injection, schedule: Q08DX002 (ip), vehicle: saline): 8 of 8
- survivor count (dose: 4.0 mg/kg/injection, schedule: Q01DX001 (ip), vehicle: saline): 8 of 8
- survivor count (dose: 4.0 mg/kg/injection, schedule: Q01DX001 (iv), vehicle: saline): 8 of 8
- survivor count (dose: 4.0 mg/kg/injection, schedule: Q01DX001 (oral), vehicle: saline): 8 of 8
- survivor count (dose: 4.0 mg/kg/injection, schedule: Q01DX005 (ip), vehicle: saline): 7 of 8
- survivor count (dose: 4.0 mg/kg/injection, schedule: Q01DX005 (iv), vehicle: saline): 7 of 8
- survivor count (dose: 4.0 mg/kg/injection, schedule: Q01DX009 (ip), vehicle: saline): 7 of 8
- survivor count (dose: 4.0 mg/kg/injection, schedule: Q04DX003 (ip), vehicle: saline): 8 of 8
- survivor count (dose: 4.0 mg/kg/injection, schedule: Q06HX008 (ip), vehicle: saline): 8 of 8
- survivor count (dose: 4.0 mg/kg/injection, schedule: Q06HX012 (ip), vehicle: saline): 8 of 8
- survivor count (dose: 4.0 mg/kg/injection, schedule: Q08DX002 (ip), vehicle: saline): 8 of 8
- survivor count (dose: 8.0 mg/kg/injection, schedule: Q01DX001 (ip), vehicle: saline): 8 of 8
- survivor count (dose: 8.0 mg/kg/injection, schedule: Q01DX001 (oral), vehicle: saline): 7 of 8
- survivor count (dose: 8.0 mg/kg/injection, schedule: Q01DX005 (ip), vehicle: saline): 6 of 8
- survivor count (dose: 8.0 mg/kg/injection, schedule: Q01DX009 (ip), vehicle: saline): 4 of 8
- survivor count (dose: 8.0 mg/kg/injection, schedule: Q04DX003 (ip), vehicle: saline): 8 of 8
- survivor count (dose: 8.0 mg/kg/injection, schedule: Q08DX002 (ip), vehicle: saline): 8 of 8
- survivor count (dose: 16.0 mg/kg/injection, schedule: Q01DX001 (ip), vehicle: saline): 8 of 8
- survivor count (dose: 16.0 mg/kg/injection, schedule: Q01DX005 (ip), vehicle: saline): 4 of 8
- survivor count (dose: 16.0 mg/kg/injection, schedule: Q04DX003 (ip), vehicle: saline): 8 of 8
- survivor count (dose: 16.0 mg/kg/injection, schedule: Q08DX002 (ip), vehicle: saline): 8 of 8

SMILES: COc1cc2c3c(c1)-c1c(ccc(OC)c1O)CC3N(C)CC2 (stereo unspecified)
- survivor count (dose: 1.0 mg/kg/injection, schedule: Q01DX001 (ip), vehicle: DMSO): 2 of 2
- survivor count (dose: 10.0 mg/kg/injection, schedule: Q01DX001 (ip), vehicle: DMSO): 2 of 2
- survivor count (dose: 100.0 mg/kg/injection, schedule: Q01DX001 (ip), vehicle: DMSO): 2 of 2

SMILES: CCOP(=O)(N(CCCl)CCCl)N1CCc2ccccc2C1 (stereo unspecified)
- survivor count (dose: 1.0 mg/kg/injection, schedule: Q01DX001 (ip), vehicle: saline with Tween-80): 2 of 2
- survivor count (dose: 10.0 mg/kg/injection, schedule: Q01DX001 (ip), vehicle: saline with Tween-80): 2 of 2
- survivor count (dose: 100.0 mg/kg/injection, schedule: Q01DX001 (ip), vehicle: saline with Tween-80): 2 of 2
